In patent US6737256B2, “Overcoming DAPA aminotransferase bottlenecks in biotin vitamers biosynthesis” (Roche Vitamins Inc., priority 1997, dated 2004):
At least one compound was matched to its structure with a doubt left.

Biological target: T1, B. subtilis DAPA aminotransferase (Bacillus subtilis, UniProt P53555)
T1 construct: A cell free extract prepared from a B. subtilis strain deleted for the bio operon but containing multiple copies (4-6) of the B. subtilis bioA gene; made in house; host or cells: B. subtilis BI611 (Δbio:cat, bpr:[P26bioA]4-6), cell-free extract (dialyzed for A1, crude for A2)
T1 sequence (P53555 1-448): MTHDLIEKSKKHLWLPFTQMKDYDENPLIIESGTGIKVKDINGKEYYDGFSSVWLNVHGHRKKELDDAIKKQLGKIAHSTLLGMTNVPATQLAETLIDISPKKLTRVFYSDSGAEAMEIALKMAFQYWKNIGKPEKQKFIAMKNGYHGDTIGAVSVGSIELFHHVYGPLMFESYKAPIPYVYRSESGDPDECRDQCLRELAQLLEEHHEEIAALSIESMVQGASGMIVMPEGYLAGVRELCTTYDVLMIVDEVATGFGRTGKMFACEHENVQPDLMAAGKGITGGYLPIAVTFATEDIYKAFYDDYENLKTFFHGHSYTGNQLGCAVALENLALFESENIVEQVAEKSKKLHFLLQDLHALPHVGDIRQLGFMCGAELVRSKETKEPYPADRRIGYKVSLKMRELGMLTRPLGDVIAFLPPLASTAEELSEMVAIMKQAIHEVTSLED
Type: biochemical
Conditions: amino donor added to reaction mix, dialyzed extract of BI611
Procedure: The assay for DAPA aminotransferase is described by Eisenberg and Stoner in 1971 (J. Bacteriol. 108:1135-1140). In this assay, the substrate KAPA is incubated with S-adenosylmethionine (SAM) in the presence of the cofactor pyridoxal 5′-phosphate and cell extract. We measured the amount of DAPA produced in a plate bioassay utilizing an E. coli bioA strain. Streptavidin (8 μg/ml) was added to the assay mix because extracts of many of the strains to be assayed contained significant amounts of biotin and dethiobiotin which fed the E. coli indicator strain used in the bioassay. Contamination by trace amounts of biotin and dethiobiotin was also removed from the KAPA preparation used as substrate by passing the material over an avidin-agarose column. The E. coli bioA109 strain (MEC1) was used to measure DAPA aminotransferase activity in the bioassay. […] Eisenberg's DAPA-sensitive strain was obtained from the E. coli Genetic Stock Center at Yale University.
To determine whether B. subtilis DAPA aminotransferase activity could be stimulated by addition of other amino donors to the reaction mix, various amino donors were screened for their ability to stimulate enzyme activity in vitro. […]

With `C[S+](CC[C@H](N)C(=O)O)C[C@H]1O[C@@H](n2cnc3c(N)ncnc32)[C@H](O)[C@@H]1O` (stereo partly shown) [SAM, S-adenosylmethionine] the Stimulation of activity was “−”.
